Reference: patent publication US20150276762A1 (NVH MEDICINAL, published 2015)
No constants are given. Whether binding was seen depends on the method and setting. Some results given as binding are weak or reduced against the parent protein; the word gives no strength.

The chains behind the UniProt entries cited, without tags or fusion partners. Residues count along the entry.
UniProt P04275, residues 764-2813: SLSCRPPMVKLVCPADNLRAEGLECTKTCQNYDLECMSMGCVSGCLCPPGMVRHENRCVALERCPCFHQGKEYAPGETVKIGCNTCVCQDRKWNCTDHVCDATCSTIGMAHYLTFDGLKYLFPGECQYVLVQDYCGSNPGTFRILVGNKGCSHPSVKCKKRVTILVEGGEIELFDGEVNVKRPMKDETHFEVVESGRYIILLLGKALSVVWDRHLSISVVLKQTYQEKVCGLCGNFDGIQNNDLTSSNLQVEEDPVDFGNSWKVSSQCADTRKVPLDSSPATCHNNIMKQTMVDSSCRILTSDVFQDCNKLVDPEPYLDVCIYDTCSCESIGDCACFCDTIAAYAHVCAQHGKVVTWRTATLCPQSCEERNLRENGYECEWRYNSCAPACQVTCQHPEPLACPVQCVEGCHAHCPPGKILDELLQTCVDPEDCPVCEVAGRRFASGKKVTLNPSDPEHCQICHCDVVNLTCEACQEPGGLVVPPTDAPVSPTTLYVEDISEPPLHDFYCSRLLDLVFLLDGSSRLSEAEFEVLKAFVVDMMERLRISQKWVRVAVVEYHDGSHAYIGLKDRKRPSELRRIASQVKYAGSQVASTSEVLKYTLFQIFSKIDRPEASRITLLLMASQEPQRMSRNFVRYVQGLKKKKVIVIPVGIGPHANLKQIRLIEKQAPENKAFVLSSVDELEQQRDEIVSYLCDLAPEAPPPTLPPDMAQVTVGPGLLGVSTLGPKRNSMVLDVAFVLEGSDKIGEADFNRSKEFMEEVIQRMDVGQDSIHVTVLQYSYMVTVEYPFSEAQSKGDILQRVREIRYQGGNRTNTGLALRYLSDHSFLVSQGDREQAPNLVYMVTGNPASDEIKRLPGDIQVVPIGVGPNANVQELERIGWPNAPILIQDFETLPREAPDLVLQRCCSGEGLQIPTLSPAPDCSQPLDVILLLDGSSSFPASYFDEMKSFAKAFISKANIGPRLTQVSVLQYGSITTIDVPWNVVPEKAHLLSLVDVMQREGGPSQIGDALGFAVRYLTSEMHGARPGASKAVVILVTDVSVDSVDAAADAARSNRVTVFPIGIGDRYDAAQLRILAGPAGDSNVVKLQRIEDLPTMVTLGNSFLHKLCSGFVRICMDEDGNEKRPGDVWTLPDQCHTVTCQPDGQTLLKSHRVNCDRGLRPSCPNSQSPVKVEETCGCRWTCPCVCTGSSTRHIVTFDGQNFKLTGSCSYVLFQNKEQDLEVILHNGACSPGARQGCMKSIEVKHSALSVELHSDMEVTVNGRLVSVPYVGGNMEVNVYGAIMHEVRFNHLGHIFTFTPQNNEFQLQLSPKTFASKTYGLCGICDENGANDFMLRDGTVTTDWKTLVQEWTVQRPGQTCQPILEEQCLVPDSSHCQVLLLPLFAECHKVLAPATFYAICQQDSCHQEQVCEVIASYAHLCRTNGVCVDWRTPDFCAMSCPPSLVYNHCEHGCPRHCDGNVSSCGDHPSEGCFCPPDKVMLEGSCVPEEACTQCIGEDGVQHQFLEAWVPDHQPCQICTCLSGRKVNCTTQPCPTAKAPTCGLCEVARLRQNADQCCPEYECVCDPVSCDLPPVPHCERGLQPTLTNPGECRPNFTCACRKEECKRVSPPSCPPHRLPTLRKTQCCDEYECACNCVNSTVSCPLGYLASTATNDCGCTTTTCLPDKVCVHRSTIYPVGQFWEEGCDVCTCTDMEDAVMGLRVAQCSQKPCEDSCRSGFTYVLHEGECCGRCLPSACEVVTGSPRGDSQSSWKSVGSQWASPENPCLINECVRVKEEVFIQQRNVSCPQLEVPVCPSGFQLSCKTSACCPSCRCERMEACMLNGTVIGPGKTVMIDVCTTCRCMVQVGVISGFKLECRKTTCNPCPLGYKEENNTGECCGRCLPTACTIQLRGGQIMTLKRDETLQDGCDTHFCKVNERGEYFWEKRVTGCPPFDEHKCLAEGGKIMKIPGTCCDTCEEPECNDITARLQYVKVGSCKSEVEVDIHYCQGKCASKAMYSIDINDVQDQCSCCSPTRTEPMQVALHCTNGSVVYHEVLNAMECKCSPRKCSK
UniProt P02461, residues 154-1221: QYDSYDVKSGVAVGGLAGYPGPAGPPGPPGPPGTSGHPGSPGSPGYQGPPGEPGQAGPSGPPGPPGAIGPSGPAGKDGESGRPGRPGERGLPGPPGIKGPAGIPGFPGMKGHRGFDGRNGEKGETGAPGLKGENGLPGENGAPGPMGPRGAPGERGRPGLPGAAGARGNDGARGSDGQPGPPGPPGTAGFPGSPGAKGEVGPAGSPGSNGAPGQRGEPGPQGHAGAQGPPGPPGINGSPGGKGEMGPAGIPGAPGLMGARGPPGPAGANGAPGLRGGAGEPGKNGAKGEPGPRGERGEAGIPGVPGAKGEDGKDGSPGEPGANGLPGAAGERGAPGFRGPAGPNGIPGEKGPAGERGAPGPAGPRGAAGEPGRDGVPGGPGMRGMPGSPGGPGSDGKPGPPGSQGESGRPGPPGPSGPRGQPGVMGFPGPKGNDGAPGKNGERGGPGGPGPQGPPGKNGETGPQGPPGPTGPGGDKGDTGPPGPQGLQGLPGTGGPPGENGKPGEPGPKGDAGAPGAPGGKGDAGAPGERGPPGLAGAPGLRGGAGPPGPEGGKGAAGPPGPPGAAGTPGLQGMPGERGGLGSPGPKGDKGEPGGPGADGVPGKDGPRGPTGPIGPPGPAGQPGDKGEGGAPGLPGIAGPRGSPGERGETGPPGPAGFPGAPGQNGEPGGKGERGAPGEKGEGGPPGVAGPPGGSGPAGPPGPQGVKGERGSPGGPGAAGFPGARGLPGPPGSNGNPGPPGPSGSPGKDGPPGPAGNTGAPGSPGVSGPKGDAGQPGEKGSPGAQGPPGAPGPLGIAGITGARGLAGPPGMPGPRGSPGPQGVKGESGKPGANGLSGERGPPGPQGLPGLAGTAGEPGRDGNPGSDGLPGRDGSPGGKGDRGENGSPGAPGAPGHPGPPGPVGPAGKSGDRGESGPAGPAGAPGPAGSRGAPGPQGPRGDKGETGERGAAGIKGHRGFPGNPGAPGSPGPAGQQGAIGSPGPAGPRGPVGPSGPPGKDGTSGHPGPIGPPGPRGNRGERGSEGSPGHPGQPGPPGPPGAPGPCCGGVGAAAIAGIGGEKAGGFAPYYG

Columns and labels:
[1] = target: purified von Willebrand factor (Wilfactin, 100 IU/ml, LFB) (UniProt P04275); test: ELISA, coated at 2 µg/ml, vWF at 0 to 2 IU/dl
[2] = target: purified von Willebrand factor (Wilfactin, 100 IU/ml, LFB) (UniProt P04275); test: ELISA, coated at 0.03125 to 2 µg/ml, vWF at 2 IU/dl
[3] = target: purified von Willebrand factor (Wilfactin, 100 IU/ml, LFB) (UniProt P04275); test: ELISA, coated at 10 or 2 µg/ml
[4] = target: purified von Willebrand factor (Wilfactin, 100 IU/ml, LFB) (UniProt P04275); test: ELISA, coated at 10 or 2 µg/ml, vWF at 0, 0.4 and 2 IU/dl

binding [1]: binds
binding [2]: binds
binding [3]: binds
binding [4]: binds
Substance: type III collagen (BD Biosciences), used as a reference (from UniProt P02461 154-1221)
